Test results published in paper PMC5876348.
Results are given in words; binding and its absence hold for the method and conditions named. Binding seen in cells or lysates may run through a third protein. Binding calls can cover weak binding; strength is not graded here.

Amino acid sequences for entries named in this document (tags omitted). A change or cut given only in a name is not applied to a line headed by its entry.
UniProt Q9Y294: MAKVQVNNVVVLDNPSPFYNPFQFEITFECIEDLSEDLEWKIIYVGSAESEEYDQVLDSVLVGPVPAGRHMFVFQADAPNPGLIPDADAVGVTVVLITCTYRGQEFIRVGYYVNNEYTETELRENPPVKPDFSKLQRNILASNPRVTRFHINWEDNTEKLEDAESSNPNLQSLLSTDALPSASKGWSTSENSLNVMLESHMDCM
UniProt Q504Q3: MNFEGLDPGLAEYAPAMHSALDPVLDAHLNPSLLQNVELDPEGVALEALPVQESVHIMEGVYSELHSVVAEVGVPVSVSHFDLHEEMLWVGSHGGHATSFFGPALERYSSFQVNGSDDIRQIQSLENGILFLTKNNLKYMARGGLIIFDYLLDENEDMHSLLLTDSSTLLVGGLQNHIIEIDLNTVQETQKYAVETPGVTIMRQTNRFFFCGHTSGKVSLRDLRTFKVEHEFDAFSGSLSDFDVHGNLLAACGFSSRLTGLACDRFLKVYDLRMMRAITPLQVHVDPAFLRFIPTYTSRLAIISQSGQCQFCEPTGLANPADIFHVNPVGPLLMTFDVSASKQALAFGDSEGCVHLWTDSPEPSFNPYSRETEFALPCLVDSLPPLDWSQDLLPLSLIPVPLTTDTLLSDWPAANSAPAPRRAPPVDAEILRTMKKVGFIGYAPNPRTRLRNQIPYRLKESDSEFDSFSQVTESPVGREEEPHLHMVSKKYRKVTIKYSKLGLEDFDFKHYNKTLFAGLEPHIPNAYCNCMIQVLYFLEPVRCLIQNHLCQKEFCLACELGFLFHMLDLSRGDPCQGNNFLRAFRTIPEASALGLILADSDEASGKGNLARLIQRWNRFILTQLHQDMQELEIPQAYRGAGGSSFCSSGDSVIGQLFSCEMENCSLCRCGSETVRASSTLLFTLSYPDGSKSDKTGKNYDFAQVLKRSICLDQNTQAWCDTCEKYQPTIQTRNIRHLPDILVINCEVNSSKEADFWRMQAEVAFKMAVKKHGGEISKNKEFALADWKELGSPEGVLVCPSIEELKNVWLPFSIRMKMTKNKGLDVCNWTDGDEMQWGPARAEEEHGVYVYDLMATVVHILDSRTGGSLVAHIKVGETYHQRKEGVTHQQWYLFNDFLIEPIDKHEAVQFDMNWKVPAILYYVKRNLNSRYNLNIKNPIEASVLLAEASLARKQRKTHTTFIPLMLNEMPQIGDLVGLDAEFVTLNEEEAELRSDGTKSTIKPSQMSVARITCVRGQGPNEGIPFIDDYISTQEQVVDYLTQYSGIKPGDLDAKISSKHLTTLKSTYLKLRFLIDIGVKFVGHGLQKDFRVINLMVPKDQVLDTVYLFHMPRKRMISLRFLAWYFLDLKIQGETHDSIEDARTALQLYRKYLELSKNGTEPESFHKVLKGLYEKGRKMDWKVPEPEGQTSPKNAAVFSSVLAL

Target: FLAG-ASF1A (HeLa cells stably expressing) (UniProt Q9Y294)
Experiment: co-IP; precipitation by FLAG-ASF1A from cells expressing USP52 deletion mutants (Supplementary Fig. 3a; in vivo deubiquitination assay: RIPA buffer, anti-FLAG affinity gel)

binding: binds
Substance: UCH domain deficient USP52 (USP52/ΔUCH) (from UniProt Q504Q3) (enzyme)
